PubChem BioAssay AID504764 | Drosophila RNAi Screening Center, 2011
Aim: 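Genes whose knock-down alters Notch-dependent transcription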 (primary screen). System: Drosophila Kc167 cells. Reagents: long dsRNA against Drosophila genes. Duration: about 5 days (4 days dsRNA, then 24 h after transfection). Conditions: transfection of constitutively active membrane-tethered Notch lacking the extracellular domain, read 24 h later. Read-out: 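Firefly luciferase from an E(spl)m3 reporter with active Notch, plus control-promoter and uninduced reporter wells for normalisation; unnormalised counts, duplicate wells a and b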. Scale: induced reporter light, run 1, well a and induced reporter light, run 1, well b: higher = more light from the Notch target reporter with active Notch; control promoter light, run 1, well a and control promoter light, run 1, well b: higher = more light from the viral control promoter (cell number, transfection, viability); uninduced reporter light, run 1, well a: higher = more light from the Notch target reporter without active Notch. Hit rule: 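Wells with low control signal or poorly matching duplicates excluded; duplicates averaged; per source plate, z beyond ±2 for induced/control log2 ratio or beyond ±1.8 for induced/uninduced marks a hit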. Meaning of the calls: active = modifier hit (raised or lowered Notch signal); inactive = not a hit.
In all, the deposit lists about 22,000 reagents; shown is an unselected part of those with a known target gene and a result. In the full data, 403 (1.9%) got an active call. 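Unnormalised raw counts per well; ratio z-scores behind the hit calls and whether each hit raises or lowers signal are not deposited.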 A plus sign joins genes that one reagent is predicted to hit. Reagent sequences are not shown. Not given: the amount of reagent.

| target | DRSC id | induced reporter light, run 1, well a | induced reporter light, run 1, well b | control promoter light, run 1, well a | control promoter light, run 1, well b | uninduced reporter light, run 1, well a | activity call |
| --- | --- | --- | --- | --- | --- | --- | --- |
| Ir62a | DRSC08250 | 1.67e5 | 1.16e5 | 1.63e5 | 1.43e5 | 6425 | inactive |
| tadr | DRSC03177 | 1.66e5 | 2.35e5 | 1.72e5 | 1.55e5 | 13490 | inactive |
| phtf | DRSC05023 | 2.53e5 | 2.61e5 | 2.42e5 | 2.71e5 | 16960 | inactive |
| CG5938 | DRSC15923 | 1.34e5 | 1.65e5 | 2.31e5 | 2.24e5 | 12395 | inactive |
| Amy-d + Amy-p | DRSC21242 | 1.05e5 | 1.24e5 | 1.07e5 | 1.46e5 | 12300 | inactive |
| Cpr100A | DRSC14465 | 1.09e5 | 1.10e5 | 1.54e5 | 1.79e5 | 9730 | inactive |
| EMC7 | DRSC07162 | 1.32e5 | 85725 | 1.12e5 | 1.35e5 | 7265 | inactive |
| tsl | DRSC17090 | 2.09e5 | 1.82e5 | 1.83e5 | 1.96e5 | 13400 | inactive |
| E23 | DRSC00425 | 6290 | 5970 | 7710 | 6675 | 3205 | inactive |
| E23 | DRSC00593 | 2.54e5 | 2.54e5 | 2.29e5 | 2.20e5 | 12478 | inactive |
| CG15035 | DRSC17967 | 1.36e5 | 1.32e5 | 2.17e5 | 2.10e5 | 10420 | inactive |
| CG5556 | DRSC00687 | 2.33e5 | 1.68e5 | 1.79e5 | 1.56e5 | 12650 | inactive |
| CG8664 | DRSC20116 | 1.03e5 | 71165 | 1.06e5 | 85800 | 14190 | inactive |
| CG17985 | DRSC06702 | 1.74e5 | 2.09e5 | 2.81e5 | 2.22e5 | 17830 | inactive |
| Lac | DRSC07452 | 2.29e5 | 1.39e5 | 1.81e5 | 1.81e5 | 15240 | inactive |
| CG13064 | DRSC09947 | 1.65e5 | 96760 | 1.25e5 | 1.24e5 | 10585 | inactive |
| CG5065 | DRSC06912 | 1.44e5 | 1.10e5 | 1.28e5 | 1.72e5 | 14000 | inactive |
| Mst85C | DRSC16746 | 1.08e5 | 94665 | 96020 | 95215 | 7000 | inactive |
| CG8578 | DRSC20114 | 1.92e5 | 1.82e5 | 2.21e5 | 2.23e5 | 14830 | inactive |
| CG31606 | DRSC01012 | 1.59e5 | 1.50e5 | 1.71e5 | 1.35e5 | 10600 | inactive |
| TotE | DRSC21355 | – | – | – | – | – | inactive |
| CG12744 | DRSC06164 | 2.19e5 | 1.77e5 | 1.42e5 | 1.81e5 | 13765 | inactive |
| CG13585 | DRSC04221 | 1.97e5 | 1.82e5 | 1.89e5 | 1.87e5 | 16100 | inactive |
| FoxL1 | DRSC08717 | 1.03e5 | 1.22e5 | 1.30e5 | 1.50e5 | 5820 | inactive |
| CG2059 | DRSC18203 | 1.48e5 | 1.53e5 | 3.14e5 | 2.64e5 | 12105 | inactive |
| Ttc19 | DRSC02474 | 49420 | 44205 | 39880 | 54405 | 2560 | inactive |
| CG11374 | DRSC00306 | 1.38e5 | 1.39e5 | 1.09e5 | 86440 | 9960 | inactive |
| GCC88 | DRSC14264 | 66760 | 1.03e5 | 72760 | 60680 | 3540 | inactive |
| Gr39b | DRSC01848 | 58065 | 68335 | 65245 | 75020 | 7655 | inactive |
| CG2955 | DRSC00552 | 1.90e5 | 1.95e5 | 1.46e5 | 1.90e5 | 16580 | inactive |
| bon | DRSC16914 | 1.12e5 | 78615 | 1.77e5 | 1.70e5 | 9215 | active |
| Gclc | DRSC18666 | 2.02e5 | 1.78e5 | 4.03e5 | 3.82e5 | 15205 | inactive |
| cnir | DRSC00499 | 1.83e5 | 1.51e5 | 2.18e5 | 2.11e5 | 10040 | inactive |
| GstD8 | DRSC16689 | 53215 | 55025 | 56855 | 48545 | 4265 | inactive |
| CG3347 | DRSC00597 | 2.07e5 | 2.66e5 | 3.14e5 | 2.90e5 | 17470 | inactive |
| Pgam5-2 | DRSC04278 | 1.78e5 | 1.49e5 | 1.62e5 | 1.82e5 | 11750 | inactive |
| TM9SF2 | DRSC03197 | 2.08e5 | 2.35e5 | 1.72e5 | 1.75e5 | 15915 | inactive |
| CG12842 (retired record) | DRSC06188 | 1.64e5 | 1.62e5 | 1.94e5 | 2.08e5 | 14478 | inactive |
| E(bx) | DRSC08172 | 1.11e5 | 1.48e5 | 2.34e5 | 1.57e5 | 7710 | inactive |
| E(bx) | DRSC08509 | 76775 | 64945 | 1.29e5 | 1.70e5 | 3890 | inactive |
| E(bx) | DRSC08583 | 59810 | 48500 | 89445 | 1.07e5 | 4165 | inactive |
| Root | DRSC15972 | 1.84e5 | 1.88e5 | 2.25e5 | 2.09e5 | 14455 | inactive |
| brk | DRSC18745 | 36495 | 28520 | 43745 | 48575 | 7815 | inactive |
| CG34327 | DRSC19517 | 81790 | 75655 | 1.13e5 | 83845 | 10745 | inactive |
| ccb | DRSC20501 | 90770 | 1.05e5 | 88215 | 96480 | 9870 | inactive |
| CG12035 | DRSC08238 | 85535 | 93185 | 1.35e5 | 1.91e5 | 8005 | inactive |
| CG4942 | DRSC10462 | 1.17e5 | 1.22e5 | 99200 | 57280 | 10050 | inactive |
| alpha-Man-Ib | DRSC14418 | 2.19e5 | 2.08e5 | 3.19e5 | 3.10e5 | 14378 | inactive |
| RpL22 | DRSC18707 | 1.20e5 | 1.06e5 | 1.72e5 | 1.56e5 | 8575 | inactive |
| Ublcp1 | DRSC14149 | 1.50e5 | 1.76e5 | 1.79e5 | 2.18e5 | 12935 | inactive |

Sorted by “control promoter light, run 1, well b” (descending): some entries from above.
| target | DRSC id | induced reporter light, run 1, well a | induced reporter light, run 1, well b | control promoter light, run 1, well a | control promoter light, run 1, well b | uninduced reporter light, run 1, well a | activity call |
| --- | --- | --- | --- | --- | --- | --- | --- |
| Root | DRSC15972 | 1.84e5 | 1.88e5 | 2.25e5 | 2.09e5 | 14455 | inactive |
| CG34327 | DRSC19517 | 81790 | 75655 | 1.13e5 | 83845 | 10745 | inactive |
| brk | DRSC18745 | 36495 | 28520 | 43745 | 48575 | 7815 | inactive |
